# Results deposited as PubChem BioAssay AID1159584 (Peter MacCallum Cancer Centre, 2016).
# Assay: 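Genes that CDH1-null MCF10A cells selectively depend on to survive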 (primary screen)
# Cell system: human MCF10A breast epithelial cells, parental and CDH1-null
# Reagent: siRNA against human genes
# Detection: 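ATP luminescence (CellTiter-Glo) viability per line relative to mean mock wells over all plates, and the ratio of CDH1-null to parental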
# Reading the numbers: CDH1-null / parental viability ratio: higher = CDH1-null cells survive relatively better than parental; CDH1-null viability vs mock: higher = more viable CDH1-null cells; parental viability vs mock: higher = more viable parental cells
# This is a random part of about 18,000 reagents tested. The record does not give: the amount of reagent, the time to read-out.
gene,CDH1-null / parental viability ratio,CDH1-null viability vs mock (fraction of mock),parental viability vs mock (fraction of mock)
MMP24,1.2,0.72,0.6
PNPLA6,1.2,0.71,0.59
ZC3H10,0.97,0.69,0.71
HYLS1,1.05,0.44,0.42
DCUN1D4,0.81,0.52,0.64
HIPK4,0.98,0.88,0.9
IL22,0.79,0.49,0.62
FBXW12,1.08,0.78,0.72
SDR9C7,0.82,0.46,0.56
KCTD13,1.22,0.83,0.68
TRMT13,1,0.8,0.8
GPNMB,0.88,0.67,0.76
UTP6,0.82,0.56,0.68
USP30,0.92,0.66,0.72
NHP2,0.83,0.4,0.48
GNAS,0.84,0.76,0.91
TMPPE,1.21,0.92,0.76
CENPN,1.6,0.64,0.4
SSX3,1.14,1.05,0.92
SYNGR4,1.18,0.58,0.49
GAGE12I,0.88,0.77,0.88
AP3M2,0.81,0.44,0.54
ACBD7,1.03,0.61,0.59
SPIDR,1.25,0.64,0.51
TAF1D,1.21,1.02,0.84
CKB,0.97,0.91,0.94
ERICH3,1.19,0.81,0.68
BSDC1,1,0.8,0.8
ZNF17,0.78,0.88,1.13
HNMT,1.06,0.88,0.83
DHFR,1.21,0.75,0.62
SIX1,0.99,1,1.01
ADPGK,0.96,0.99,1.03
ACAT2,1,0.68,0.68
PIGY,0.77,0.72,0.93
ZNHIT6,1,0.89,0.89
KLHDC2,0.94,0.62,0.66
PTPRC,1.33,0.92,0.69
TM7SF2,0.8,0.6,0.75
ANAPC11,1.37,0.52,0.38
TTC7B,0.76,0.55,0.72
IL13RA1,1.06,0.74,0.7
REEP2,0.93,0.78,0.84
VGLL3,0.96,0.94,0.98
H3C10,1.18,0.78,0.66
NIM1K,0.95,0.72,0.76

Reformatted: results already given.
USP30
- CDH1-null / parental viability ratio: 0.92
- CDH1-null viability vs mock (fraction of mock): 0.66
- parental viability vs mock (fraction of mock): 0.72

NHP2
- CDH1-null / parental viability ratio: 0.83
- CDH1-null viability vs mock (fraction of mock): 0.4
- parental viability vs mock (fraction of mock): 0.48

GNAS
- CDH1-null / parental viability ratio: 0.84
- CDH1-null viability vs mock (fraction of mock): 0.76
- parental viability vs mock (fraction of mock): 0.91

TMPPE
- CDH1-null / parental viability ratio: 1.21
- CDH1-null viability vs mock (fraction of mock): 0.92
- parental viability vs mock (fraction of mock): 0.76

CENPN
- CDH1-null / parental viability ratio: 1.6
- CDH1-null viability vs mock (fraction of mock): 0.64
- parental viability vs mock (fraction of mock): 0.4

SSX3
- CDH1-null / parental viability ratio: 1.14
- CDH1-null viability vs mock (fraction of mock): 1.05
- parental viability vs mock (fraction of mock): 0.92

SYNGR4
- CDH1-null / parental viability ratio: 1.18
- CDH1-null viability vs mock (fraction of mock): 0.58
- parental viability vs mock (fraction of mock): 0.49
